This test has as its target GFP-tagged ZO-1 full-length protein (UniProt Q07157). Kind of test: pull-down; only the target purified.

Sequences of proteins named here, by UniProt entry; tags and fusion partners are left off.
UniProt Q07157: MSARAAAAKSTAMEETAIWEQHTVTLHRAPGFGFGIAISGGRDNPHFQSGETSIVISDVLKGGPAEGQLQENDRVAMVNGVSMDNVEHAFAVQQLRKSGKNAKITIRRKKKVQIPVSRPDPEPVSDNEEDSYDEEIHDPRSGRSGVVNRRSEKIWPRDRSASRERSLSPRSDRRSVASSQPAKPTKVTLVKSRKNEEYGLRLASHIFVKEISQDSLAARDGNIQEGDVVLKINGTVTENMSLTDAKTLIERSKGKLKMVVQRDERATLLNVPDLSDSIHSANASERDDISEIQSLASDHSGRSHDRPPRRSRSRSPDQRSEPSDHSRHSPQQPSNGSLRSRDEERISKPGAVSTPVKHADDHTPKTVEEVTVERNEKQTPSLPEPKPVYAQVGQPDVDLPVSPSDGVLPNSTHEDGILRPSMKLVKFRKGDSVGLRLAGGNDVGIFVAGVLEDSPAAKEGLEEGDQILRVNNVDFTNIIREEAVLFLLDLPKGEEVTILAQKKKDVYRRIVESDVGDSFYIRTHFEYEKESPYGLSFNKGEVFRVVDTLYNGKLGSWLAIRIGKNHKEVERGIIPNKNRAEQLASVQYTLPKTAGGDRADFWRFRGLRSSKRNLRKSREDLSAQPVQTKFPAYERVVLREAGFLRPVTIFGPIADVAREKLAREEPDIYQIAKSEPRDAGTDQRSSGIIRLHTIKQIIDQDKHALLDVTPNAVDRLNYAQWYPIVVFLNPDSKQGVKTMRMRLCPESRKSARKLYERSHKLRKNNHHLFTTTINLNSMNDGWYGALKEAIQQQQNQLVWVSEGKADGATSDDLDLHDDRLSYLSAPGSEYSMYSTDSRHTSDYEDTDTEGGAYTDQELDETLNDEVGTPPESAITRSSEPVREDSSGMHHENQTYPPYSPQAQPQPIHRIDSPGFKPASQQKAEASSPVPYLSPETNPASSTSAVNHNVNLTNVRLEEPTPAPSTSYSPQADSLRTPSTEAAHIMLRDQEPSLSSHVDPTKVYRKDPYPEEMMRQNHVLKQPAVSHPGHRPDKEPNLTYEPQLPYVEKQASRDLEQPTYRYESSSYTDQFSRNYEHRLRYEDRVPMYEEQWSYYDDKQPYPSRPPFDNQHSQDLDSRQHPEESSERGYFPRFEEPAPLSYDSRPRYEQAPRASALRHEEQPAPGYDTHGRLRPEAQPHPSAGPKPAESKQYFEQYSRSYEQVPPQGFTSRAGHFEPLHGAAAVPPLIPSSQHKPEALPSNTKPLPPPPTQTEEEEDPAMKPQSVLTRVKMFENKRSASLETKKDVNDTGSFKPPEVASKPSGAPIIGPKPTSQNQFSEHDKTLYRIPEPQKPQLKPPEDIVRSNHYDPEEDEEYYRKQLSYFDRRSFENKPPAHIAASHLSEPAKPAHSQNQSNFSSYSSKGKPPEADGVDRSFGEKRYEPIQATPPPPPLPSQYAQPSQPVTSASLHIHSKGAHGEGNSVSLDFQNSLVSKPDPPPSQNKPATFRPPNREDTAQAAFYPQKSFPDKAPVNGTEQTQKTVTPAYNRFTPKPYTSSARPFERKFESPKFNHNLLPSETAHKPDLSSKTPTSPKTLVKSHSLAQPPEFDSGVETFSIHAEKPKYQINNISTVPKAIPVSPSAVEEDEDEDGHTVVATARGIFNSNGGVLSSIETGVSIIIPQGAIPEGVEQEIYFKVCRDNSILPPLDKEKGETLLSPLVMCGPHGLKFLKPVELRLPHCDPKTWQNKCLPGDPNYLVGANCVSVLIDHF
UniProt P0DTC4: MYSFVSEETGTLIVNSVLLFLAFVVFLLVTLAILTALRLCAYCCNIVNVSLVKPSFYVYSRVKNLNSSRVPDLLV

Results are given in words; binding and its absence hold for the method and conditions named. Binding seen in cells or lysates may run through a third protein. Some results given as binding are weak or reduced against the parent protein; the word gives no strength.

As for “SARS-CoV-2 Envelope (E) protein, wild type, produced by the recombinant virus rSARS-CoV2-E-WT (from UniProt P0DTC4 1-75)”, the binding entry is recorded as “binds”.

(Values after PMC12255046.)
